Assay: Removal of coloring composition by coloring removal solutions, Example 5
Parameters: species or system yak
[1] = Table 12, 2% DBSA in Dodecane, 20 minutes
[2] = Table 12, 4% DBSA in Dodecane, 20 minutes
[3] = Table 13, 2% DBSA in Dodecane, 5 minutes
[4] = Table 13, 4% DBSA in Dodecane, 5 minutes
[5] = Table 12, 0.5% TBAF in NOP, 20 minutes
[6] = Table 12, 1% TBAF in NOP, 20 minutes
[7] = Table 12, 2% TBAF in NOP, 20 minutes
[8] = Table 13, 1% TBAF in NOP, 5 minutes
[9] = Table 13, 2% TBAF in NOP, 5 minutes

CCCCCCCCCCCCc1ccc(S(=O)(=O)O)cc1 [DBSA, 4-Dodecyl benzene sulfonic acid]
removal of coloring composition, Sample Green (A) [1]: + | removal of coloring composition, Sample Red (C) [1]: ++ | removal of coloring composition, Sample Silver (J) [1]: + | removal of coloring composition, Sample Green (A) [2]: ++ | removal of coloring composition, Sample Red (C) [2]: ++ | removal of coloring composition, Sample Silver (J) [2]: ++ | removal of coloring composition, Sample Green (A) [3]: + | removal of coloring composition, Sample Red (C) [3]: + | removal of coloring composition, Sample Silver (J) [3]: ++ | removal of coloring composition, Sample Green (A) [4]: ++ | removal of coloring composition, Sample Red (C) [4]: ++ | removal of coloring composition, Sample Silver (J) [4]: ++

CCCC[N+](CCCC)(CCCC)CCCC.[F-] [TBAF, Tetra butyl ammonium fluoride]
removal of coloring composition, Sample Green (A) [5]: ++ | removal of coloring composition, Sample Red (C) [5]: ++ | removal of coloring composition, Sample Silver (J) [5]: ++ | removal of coloring composition, Sample Green (A) [6]: ++ | removal of coloring composition, Sample Red (C) [6]: ++ | removal of coloring composition, Sample Silver (J) [6]: ++ | removal of coloring composition, Sample Green (A) [7]: ++ | removal of coloring composition, Sample Red (C) [7]: ++ | removal of coloring composition, Sample Silver (J) [7]: ++ | removal of coloring composition, Sample Green (A) [8]: + | removal of coloring composition, Sample Red (C) [8]: ++ | removal of coloring composition, Sample Silver (J) [8]: ++ | removal of coloring composition, Sample Green (A) [9]: ++ | removal of coloring composition, Sample Red (C) [9]: ++ | removal of coloring composition, Sample Silver (J) [9]: ++

Source: patent US11266578B2, “Composition, kit and method for coloring keratinous fibers” (Henkel AG & Co. KGaA, priority 2017, dated 2022)
